Results deposited as PubChem BioAssay AID1259308 (NCATS, 2017)
Assay: 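Candidate targets for better recombinant protein yield in mammalian cells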 (primary screen). Cells: human HEK293 embryonic kidney cells stably expressing firefly luciferase (HEK-CMV-Luc2-Hygro). Reagent: single siRNA against human genes, 0.8 pmol siRNA per well. Duration: 72 h. Detection: 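Reporter luminescence and viable-cell signal on separate replicate plates, given as percent of non-targeting control and median/MAD z-scores, plus per-cell luciferase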. Scale: total luciferase, z-score and total luciferase, % of control: higher = more reporter protein produced. Active means: 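An siRNA counts as active if its total luciferase robust z-score exceeds 3; genes with two or more such siRNAs out of three were retested with fresh siRNAs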. Meaning of the calls: active = raised luciferase; inactive = no rise.
The whole screen tested about 59,000 reagents; this is a part drawn at random. In the full data, about 1,510 (2.6%) are marked active. 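Calls use total luciferase alone and ignore viability, so some active siRNAs may act by altering cell number.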 Reagents against one gene are numbered here. Further read-outs or replicates are left out here.

{"gene knocked down": "KDELR1", "siRNA no.": 1, "total luciferase, z-score": -0.182, "total luciferase, % of control": 78.3, "activity call": "inactive"}
{"gene knocked down": "KDELR1", "siRNA no.": 2, "total luciferase, z-score": -0.506, "total luciferase, % of control": 71.8, "activity call": "inactive"}
{"gene knocked down": "KDELR1", "siRNA no.": 3, "total luciferase, z-score": 0.444, "total luciferase, % of control": 90.7, "activity call": "inactive"}
{"gene knocked down": "CCDC12", "siRNA no.": 1, "total luciferase, z-score": 0.12, "total luciferase, % of control": 84.3, "activity call": "inactive"}
{"gene knocked down": "CCDC12", "siRNA no.": 2, "total luciferase, z-score": 0.459, "total luciferase, % of control": 91, "activity call": "inactive"}
{"gene knocked down": "CCDC12", "siRNA no.": 3, "total luciferase, z-score": 4.91, "total luciferase, % of control": 180, "activity call": "active"}
{"gene knocked down": "TSPAN10", "siRNA no.": 1, "total luciferase, z-score": 1.21, "total luciferase, % of control": 106, "activity call": "inactive"}
{"gene knocked down": "TSPAN10", "siRNA no.": 2, "total luciferase, z-score": 1.05, "total luciferase, % of control": 103, "activity call": "inactive"}
{"gene knocked down": "TSPAN10", "siRNA no.": 3, "total luciferase, z-score": 2.9, "total luciferase, % of control": 140, "activity call": "inactive"}
{"gene knocked down": "ST6GAL2", "siRNA no.": 1, "total luciferase, z-score": 0.0462, "total luciferase, % of control": 82.8, "activity call": "inactive"}
{"gene knocked down": "ST6GAL2", "siRNA no.": 2, "total luciferase, z-score": -0.557, "total luciferase, % of control": 70.8, "activity call": "inactive"}
{"gene knocked down": "ST6GAL2", "siRNA no.": 3, "total luciferase, z-score": 0.0327, "total luciferase, % of control": 82.5, "activity call": "inactive"}
{"gene knocked down": "EGLN3", "siRNA no.": 1, "total luciferase, z-score": -0.712, "total luciferase, % of control": 67.7, "activity call": "inactive"}
{"gene knocked down": "EGLN3", "siRNA no.": 2, "total luciferase, z-score": -0.471, "total luciferase, % of control": 72.5, "activity call": "inactive"}
{"gene knocked down": "EGLN3", "siRNA no.": 3, "total luciferase, z-score": -0.126, "total luciferase, % of control": 79.4, "activity call": "inactive"}
{"gene knocked down": "PFN4", "siRNA no.": 1, "total luciferase, z-score": -0.0885, "total luciferase, % of control": 80.1, "activity call": "inactive"}
{"gene knocked down": "PFN4", "siRNA no.": 2, "total luciferase, z-score": -1.74, "total luciferase, % of control": 47.3, "activity call": "inactive"}
{"gene knocked down": "PFN4", "siRNA no.": 3, "total luciferase, z-score": 0.712, "total luciferase, % of control": 96, "activity call": "inactive"}
{"gene knocked down": "CSDC2", "siRNA no.": 1, "total luciferase, z-score": 0.585, "total luciferase, % of control": 93.5, "activity call": "inactive"}
{"gene knocked down": "CSDC2", "siRNA no.": 2, "total luciferase, z-score": -1.53, "total luciferase, % of control": 51.4, "activity call": "inactive"}
{"gene knocked down": "CSDC2", "siRNA no.": 3, "total luciferase, z-score": -1.22, "total luciferase, % of control": 57.6, "activity call": "inactive"}

Next part (3 carried over from the part before).
{"gene knocked down": "CSDC2", "siRNA no.": 1, "total luciferase, z-score": 0.585, "total luciferase, % of control": 93.5, "activity call": "inactive"}
{"gene knocked down": "CSDC2", "siRNA no.": 2, "total luciferase, z-score": -1.53, "total luciferase, % of control": 51.4, "activity call": "inactive"}
{"gene knocked down": "CSDC2", "siRNA no.": 3, "total luciferase, z-score": -1.22, "total luciferase, % of control": 57.6, "activity call": "inactive"}
{"gene knocked down": "SPMIP2", "siRNA no.": 1, "total luciferase, z-score": -1.04, "total luciferase, % of control": 61.1, "activity call": "inactive"}
{"gene knocked down": "SPMIP2", "siRNA no.": 2, "total luciferase, z-score": 0.194, "total luciferase, % of control": 85.7, "activity call": "inactive"}
{"gene knocked down": "SPMIP2", "siRNA no.": 3, "total luciferase, z-score": -1.06, "total luciferase, % of control": 60.9, "activity call": "inactive"}
{"gene knocked down": "PRR13", "siRNA no.": 1, "total luciferase, z-score": 3.4, "total luciferase, % of control": 149, "activity call": "active"}
{"gene knocked down": "PRR13", "siRNA no.": 2, "total luciferase, z-score": -1.49, "total luciferase, % of control": 52.3, "activity call": "inactive"}
{"gene knocked down": "PRR13", "siRNA no.": 3, "total luciferase, z-score": -0.196, "total luciferase, % of control": 78, "activity call": "inactive"}
{"gene knocked down": "FGF12", "siRNA no.": 1, "total luciferase, z-score": -0.713, "total luciferase, % of control": 67.7, "activity call": "inactive"}
{"gene knocked down": "FGF12", "siRNA no.": 2, "total luciferase, z-score": -0.263, "total luciferase, % of control": 76.7, "activity call": "inactive"}
{"gene knocked down": "FGF12", "siRNA no.": 3, "total luciferase, z-score": -0.936, "total luciferase, % of control": 63.3, "activity call": "inactive"}
{"gene knocked down": "THAP7", "siRNA no.": 1, "total luciferase, z-score": -1.17, "total luciferase, % of control": 58.6, "activity call": "inactive"}
{"gene knocked down": "THAP7", "siRNA no.": 2, "total luciferase, z-score": -1.83, "total luciferase, % of control": 45.5, "activity call": "inactive"}
{"gene knocked down": "THAP7", "siRNA no.": 3, "total luciferase, z-score": -1.57, "total luciferase, % of control": 50.7, "activity call": "inactive"}
